The series can be described thus: self-splicing fitness, log relative to wild type (ln ratio); higher = more splicing; Tetrahymena group I intron in knt gene, E. coli kanamycin selection, DiMSum; sequences stand for … in CUCUCU…GGAGGGAAAAGUUAUCAGGCAUGCACCUGGUAGCUAGUCUUUAAACCAAUAGAUUGCAUCGGUUUAAAAGGCAAGACCGUCAAAUUGCGGGAAAGGGGUCAACAGCCGUUCAGUACCAAGUCUCAGGGGAAACUUUGAGAUGGCCUUGCAAAGGGUAUGGUAAUAAGCUGACGGACAUGGUCCUAACCACGCAGCCAAGUCCUAAGUCAACAGAUCUUCUGUUGAUAUGGAUGCAGUUCACAGACUAAAUGUCGGUCGGGGAAGAUGUAUUCUUCUCAUAAGAUAUAGUCGGACCUCUCCUUAAUGGGAGCUAGCGGAUGAAGUGAUGCAACACUGGAGCCGCUGGGAACUAAUUUGUAUGCGAAAGUAUAUUGAUUAGUUUUGGAGUACUCGUGGUCG
Summed up:
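Fitness was computed with DiMSum as the error-weighted combination of replicate fold changes, kanamycin versus none, each normalised to wild type. The library randomised all eight intron nucleotides of the P1ex region, with the intron placed in the knt kanamycin-resistance gene on pET-22b(+) in E. coli BL21(DE3). Six replicate transformations were grown overnight at 37°C or 30°C on LB agar with or without 25 μg/mL kanamycin, plus 100 μg/mL carbenicillin, 50 μM IPTG and 0.2% rhamnose. Pooled colonies were amplicon-sequenced on an Illumina HiSeq 2500.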

± gives the uncertainty stated by the source. The uncertainty is large for many entries.

For GAAGAGCAAUAUUACGGAGC, under “30 °C”, the “self-splicing fitness (ln)” value was -3.39 ± 1.

Regarding CCGUAGCAAUAUUACGCAGG, the “self-splicing fitness (ln)” value (30 °C) was -4.73 ± 1. Turning to CCUUAGCAAUAUUACGCAUC, the “self-splicing fitness (ln)” value (30 °C) was -5.3 ± 0.59. Take UUCGAGCAAUAUUACGGCUC: the “self-splicing fitness (ln)” value is -2.11 ± 0.8 (30 °C) and -2.11 ± 0.56 (37 °C).

Turning to GCUGAGCAAUAUUACGAUGC, the “self-splicing fitness (ln)” value by setting is: (30 °C) -3.91 ± 1; (37 °C) -1.54 ± 1.2. As to CUGAAGCAAUAUUACGACGC, the “self-splicing fitness (ln)” value (37 °C) is -3.78 ± 0.73. As to UUGCAGCAAUAUUACGAUAC, the “self-splicing fitness (ln)” value was -3.58 ± 0.74 (30 °C) and -1.74 ± 0.47 (37 °C).

Consider CCAAAGCAAUAUUACGACAC, for which the “self-splicing fitness (ln)” value (30 °C) is -4.67 ± 0.51. For the sequence GGGGAGCAAUAUUACGAAAA, the “self-splicing fitness (ln)” value is, setting by setting: (30 °C) -1.33 ± 0.69; (37 °C) -0.693 ± 0.82. Turning to GACCAGCAAUAUUACGACUC, the “self-splicing fitness (ln)” value by setting is: (30 °C) -0.264 ± 0.06; (37 °C) 0.162 ± 0.077. As to GCGGAGCAAUAUUACGCGGC, the “self-splicing fitness (ln)” value (37 °C) was -0.829 ± 0.68. In the case of AAUAAGCAAUAUUACGUGAA, the “self-splicing fitness (ln)” value is, setting by setting: (30 °C) -2.46 ± 0.16; (37 °C) -0.674 ± 0.13. With UGUAAGCAAUAUUACGACUU, the “self-splicing fitness (ln)” value (30 °C) is -1.06 ± 0.09 and the “self-splicing fitness (ln)” value (37 °C) turned out to be 0.0267 ± 0.14. Turning to UCAUAGCAAUAUUACGCGGC, the “self-splicing fitness (ln)” value (37 °C) was -2.05 ± 0.85. As to UUUGAGCAAUAUUACGUGGC, the “self-splicing fitness (ln)” value runs as follows: (30 °C) -4.44 ± 0.59; (37 °C) -2.66 ± 0.56. In the case of UGAGAGCAAUAUUACGUGUA, for the setting “37 °C”, the “self-splicing fitness (ln)” value is -3.64 ± 0.73.

Consider CACGAGCAAUAUUACGGAUC, for which the “self-splicing fitness (ln)” value (30 °C) was -4.07 ± 0.51. On to CAUUAGCAAUAUUACGCUUA, for which the “self-splicing fitness (ln)” value (30 °C) is -2.22 ± 0.13 and the “self-splicing fitness (ln)” value (37 °C) is -2.16 ± 0.15. Take ACACAGCAAUAUUACGCAUG: the “self-splicing fitness (ln)” value by setting is: (30 °C) -1.04 ± 0.075; (37 °C) -0.692 ± 0.081. The like results for UCGAAGCAAUAUUACGCGAC were, in that order, -3.47 ± 0.25 and -2.2 ± 0.26. For the sequence GUUUAGCAAUAUUACGAUGG, the “self-splicing fitness (ln)” value is -1.77 ± 0.5 (30 °C) and -2.32 ± 0.77 (37 °C). For CCUUAGCAAUAUUACGAAUU, under “30 °C”, the “self-splicing fitness (ln)” value was -5.01 ± 0.72. On to CGUAAGCAAUAUUACGUCUA, for which the “self-splicing fitness (ln)” value by setting is: (30 °C) -2.78 ± 0.28; (37 °C) -2.03 ± 0.18.

UUCUAGCAAUAUUACGAUGC: the “self-splicing fitness (ln)” value (30 °C) is -2.12 ± 0.3 and the “self-splicing fitness (ln)” value (37 °C) is -2.86 ± 0.38. For the sequence CGAGAGCAAUAUUACGACCC, the “self-splicing fitness (ln)” value (37 °C) was -0.778 ± 1.4. In the case of CGUUAGCAAUAUUACGAGAA, the “self-splicing fitness (ln)” value is -1.93 ± 0.49 (30 °C) and -1.45 ± 0.46 (37 °C). As for GGAUAGCAAUAUUACGCGGA, the “self-splicing fitness (ln)” value reads like this: (30 °C) -2.65 ± 0.43; (37 °C) -1.57 ± 0.31. With GUAGAGCAAUAUUACGCCGA, the “self-splicing fitness (ln)” value is -1.1 ± 0.65 (30 °C) and -1.39 ± 0.62 (37 °C).

For the sequence AAGGAGCAAUAUUACGAUGC, the “self-splicing fitness (ln)” value reads like this: (30 °C) -3.87 ± 0.52; (37 °C) -2.27 ± 0.63. Consider CUGCAGCAAUAUUACGCCGC, for which, under “30 °C”, the “self-splicing fitness (ln)” value is -3.8 ± 0.52. For CUAUAGCAAUAUUACGAGUG, the “self-splicing fitness (ln)” value was -0.752 ± 0.071 (30 °C) and 0.361 ± 0.1 (37 °C). For the sequence UCUAAGCAAUAUUACGUCUC, the “self-splicing fitness (ln)” value (37 °C) was -3.38 ± 0.4. With GCUAAGCAAUAUUACGACUA, the “self-splicing fitness (ln)” value (30 °C) is -1.7 ± 0.19 and the “self-splicing fitness (ln)” value (37 °C) is -0.865 ± 0.23.

As for UAUGAGCAAUAUUACGGGAA, the “self-splicing fitness (ln)” value (30 °C) was -3.51 ± 1.

Take CCCCAGCAAUAUUACGCCCC: for the setting “37 °C”, the “self-splicing fitness (ln)” value was -2.57 ± 0.55. Regarding ACUGAGCAAUAUUACGCCUC, the “self-splicing fitness (ln)” value (37 °C) is -2.78 ± 0.54. UCACAGCAAUAUUACGAAGC: under “37 °C”, the “self-splicing fitness (ln)” value was -4.46 ± 0.51. With UAUUAGCAAUAUUACGUCGC, the “self-splicing fitness (ln)” value was -3.35 ± 1 (30 °C) and -2.52 ± 0.54 (37 °C). As for UUUGAGCAAUAUUACGCCAA, the “self-splicing fitness (ln)” value (30 °C) was -4.36 ± 0.72. As to GGCCAGCAAUAUUACGAGCC, the “self-splicing fitness (ln)” value is -2.63 ± 0.26 (30 °C) and -2.72 ± 0.29 (37 °C).

For the sequence UAAGAGCAAUAUUACGUGGA, the “self-splicing fitness (ln)” value runs as follows: (30 °C) -2.84 ± 0.28; (37 °C) -2.14 ± 0.3. With AACUAGCAAUAUUACGCCGC, the “self-splicing fitness (ln)” value (37 °C) was -3.69 ± 0.52. Consider UUUAAGCAAUAUUACGUCGC, for which the “self-splicing fitness (ln)” value was -3.77 ± 1 (30 °C) and -2.39 ± 0.77 (37 °C). Turning to CGGGAGCAAUAUUACGCUCC, the “self-splicing fitness (ln)” value (37 °C) is -0.778 ± 1.4.

The values are drawn from the supplement of paper PMC7877785.
